# Laboratory results taken from paper PMC8920235.
# These are yes or no findings as the source states them, for the method shown. Binding seen in cells or lysates may run through a third protein. A result given as binding can be weak or reduced; the word gives no strength.
# Target: T1, interferon regulatory factor 3 (mouse (endogenous in Raw 264.7)) (UniProt P70671)
# T1 sequence: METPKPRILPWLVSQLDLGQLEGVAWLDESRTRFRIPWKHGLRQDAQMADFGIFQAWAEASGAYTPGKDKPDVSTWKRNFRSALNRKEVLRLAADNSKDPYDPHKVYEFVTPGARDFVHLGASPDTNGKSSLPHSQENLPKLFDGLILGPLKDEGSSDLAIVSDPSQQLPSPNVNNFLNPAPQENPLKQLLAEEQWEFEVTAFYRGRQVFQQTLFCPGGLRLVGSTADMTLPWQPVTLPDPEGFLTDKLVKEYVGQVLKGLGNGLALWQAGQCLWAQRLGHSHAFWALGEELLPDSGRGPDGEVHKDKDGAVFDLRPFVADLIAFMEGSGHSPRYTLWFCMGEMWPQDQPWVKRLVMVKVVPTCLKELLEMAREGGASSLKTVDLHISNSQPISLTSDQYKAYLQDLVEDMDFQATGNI
# Assay: co-IP; Raw 264.7 cells pretreated with the indicated concentration of QUIN or DMSO for 8 h; NP40 lysis buffer; extracts precipitated with anti-IRF3 or anti-CaMKII antibody overnight at 4°C; beads washed three times (50 mM Tris pH 7.4, 500 mM NaCl, 0.1% NP-40, 1 mM EDTA); Western blot with the other antibody
substance,measurement,value
Calcium/calmodulin-dependent protein kinase II (mouse (endogenous in Raw 264.7)) (enzyme),binding,binds
